The values below come from article PMC2607300.

Amino acid sequences for entries named in this document (tags omitted). A change or cut given only in a name is not applied to a line headed by its entry.
UniProt A0A1D8PU46: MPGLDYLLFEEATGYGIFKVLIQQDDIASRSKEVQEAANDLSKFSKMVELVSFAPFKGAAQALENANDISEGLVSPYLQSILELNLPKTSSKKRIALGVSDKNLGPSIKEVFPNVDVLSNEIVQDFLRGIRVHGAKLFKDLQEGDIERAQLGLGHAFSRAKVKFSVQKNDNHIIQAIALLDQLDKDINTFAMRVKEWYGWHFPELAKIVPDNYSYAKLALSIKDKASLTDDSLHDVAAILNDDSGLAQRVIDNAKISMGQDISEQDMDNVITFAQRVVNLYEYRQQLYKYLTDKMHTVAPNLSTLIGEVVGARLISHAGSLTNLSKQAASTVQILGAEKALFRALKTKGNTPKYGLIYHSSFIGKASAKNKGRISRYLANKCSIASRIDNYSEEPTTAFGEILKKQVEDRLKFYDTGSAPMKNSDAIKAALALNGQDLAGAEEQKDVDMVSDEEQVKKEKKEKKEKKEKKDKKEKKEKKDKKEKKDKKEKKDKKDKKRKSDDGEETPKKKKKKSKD
UniProt A0A1D8PJD3: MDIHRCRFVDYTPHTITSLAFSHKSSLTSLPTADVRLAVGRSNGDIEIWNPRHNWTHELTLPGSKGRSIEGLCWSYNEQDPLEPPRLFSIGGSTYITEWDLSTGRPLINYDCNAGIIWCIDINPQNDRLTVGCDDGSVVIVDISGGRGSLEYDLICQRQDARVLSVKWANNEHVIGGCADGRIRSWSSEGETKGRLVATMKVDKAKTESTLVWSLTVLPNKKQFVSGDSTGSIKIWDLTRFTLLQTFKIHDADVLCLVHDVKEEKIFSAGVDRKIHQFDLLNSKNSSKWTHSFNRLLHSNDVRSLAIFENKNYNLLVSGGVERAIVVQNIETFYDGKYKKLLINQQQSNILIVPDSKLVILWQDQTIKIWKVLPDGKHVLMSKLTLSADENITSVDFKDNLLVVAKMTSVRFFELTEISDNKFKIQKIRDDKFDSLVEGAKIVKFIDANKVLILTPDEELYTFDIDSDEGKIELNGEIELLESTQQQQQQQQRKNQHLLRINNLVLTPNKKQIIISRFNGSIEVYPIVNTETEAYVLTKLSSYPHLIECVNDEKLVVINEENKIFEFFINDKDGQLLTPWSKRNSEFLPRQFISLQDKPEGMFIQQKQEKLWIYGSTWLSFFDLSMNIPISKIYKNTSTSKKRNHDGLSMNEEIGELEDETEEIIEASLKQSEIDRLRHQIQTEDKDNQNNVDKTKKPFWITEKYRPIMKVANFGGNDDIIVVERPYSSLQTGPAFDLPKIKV
UniProt A0A1D8PIX3: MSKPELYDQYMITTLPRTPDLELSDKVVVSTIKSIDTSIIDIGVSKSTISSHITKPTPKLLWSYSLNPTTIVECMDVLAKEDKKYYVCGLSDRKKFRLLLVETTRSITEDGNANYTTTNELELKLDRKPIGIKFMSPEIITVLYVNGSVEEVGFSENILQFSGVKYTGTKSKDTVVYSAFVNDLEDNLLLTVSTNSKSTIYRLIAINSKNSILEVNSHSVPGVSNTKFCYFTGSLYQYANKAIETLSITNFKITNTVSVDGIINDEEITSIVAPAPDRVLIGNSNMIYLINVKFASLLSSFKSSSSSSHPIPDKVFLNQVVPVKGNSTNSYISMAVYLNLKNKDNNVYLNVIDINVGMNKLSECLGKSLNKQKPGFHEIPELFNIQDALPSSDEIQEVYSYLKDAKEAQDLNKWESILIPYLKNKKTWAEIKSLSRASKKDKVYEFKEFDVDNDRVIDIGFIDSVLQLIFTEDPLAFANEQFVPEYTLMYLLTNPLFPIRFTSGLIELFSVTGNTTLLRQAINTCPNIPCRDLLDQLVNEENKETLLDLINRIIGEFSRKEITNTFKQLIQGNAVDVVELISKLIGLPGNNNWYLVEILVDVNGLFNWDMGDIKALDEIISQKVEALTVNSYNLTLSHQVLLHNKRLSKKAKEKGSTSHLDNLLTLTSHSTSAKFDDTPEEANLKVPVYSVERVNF
UniProt A0A1D8PRJ5: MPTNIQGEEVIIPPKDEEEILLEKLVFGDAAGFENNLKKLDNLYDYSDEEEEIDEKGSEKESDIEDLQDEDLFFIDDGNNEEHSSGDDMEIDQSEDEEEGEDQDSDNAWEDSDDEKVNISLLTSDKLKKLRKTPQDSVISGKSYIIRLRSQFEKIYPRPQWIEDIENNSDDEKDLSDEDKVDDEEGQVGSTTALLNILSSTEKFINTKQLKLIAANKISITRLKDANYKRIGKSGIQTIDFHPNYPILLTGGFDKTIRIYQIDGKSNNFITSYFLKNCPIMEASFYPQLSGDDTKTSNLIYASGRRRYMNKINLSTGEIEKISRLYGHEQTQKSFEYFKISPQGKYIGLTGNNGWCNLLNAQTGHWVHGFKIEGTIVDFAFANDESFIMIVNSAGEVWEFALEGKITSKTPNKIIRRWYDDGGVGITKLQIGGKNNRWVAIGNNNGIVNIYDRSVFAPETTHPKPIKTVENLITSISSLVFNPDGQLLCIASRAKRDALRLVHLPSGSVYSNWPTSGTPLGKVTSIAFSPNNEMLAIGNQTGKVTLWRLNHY
UniProt A0A1D8PU59: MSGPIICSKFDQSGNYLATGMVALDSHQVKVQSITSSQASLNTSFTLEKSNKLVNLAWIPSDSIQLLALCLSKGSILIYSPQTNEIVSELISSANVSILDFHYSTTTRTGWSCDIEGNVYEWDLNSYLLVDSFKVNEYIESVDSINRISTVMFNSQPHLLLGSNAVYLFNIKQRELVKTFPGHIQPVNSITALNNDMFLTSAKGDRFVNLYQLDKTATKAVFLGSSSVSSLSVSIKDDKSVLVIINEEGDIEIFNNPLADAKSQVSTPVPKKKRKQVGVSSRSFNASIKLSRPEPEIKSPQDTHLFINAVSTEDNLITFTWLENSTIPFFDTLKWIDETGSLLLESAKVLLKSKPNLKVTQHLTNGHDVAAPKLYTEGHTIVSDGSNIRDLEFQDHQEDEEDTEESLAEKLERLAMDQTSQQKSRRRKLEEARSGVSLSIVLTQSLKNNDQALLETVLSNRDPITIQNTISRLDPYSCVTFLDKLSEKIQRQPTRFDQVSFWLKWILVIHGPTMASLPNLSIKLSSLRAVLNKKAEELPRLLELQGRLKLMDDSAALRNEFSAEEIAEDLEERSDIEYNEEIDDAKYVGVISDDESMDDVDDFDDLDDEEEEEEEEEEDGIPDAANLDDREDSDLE
UniProt A0A1D8PGP2: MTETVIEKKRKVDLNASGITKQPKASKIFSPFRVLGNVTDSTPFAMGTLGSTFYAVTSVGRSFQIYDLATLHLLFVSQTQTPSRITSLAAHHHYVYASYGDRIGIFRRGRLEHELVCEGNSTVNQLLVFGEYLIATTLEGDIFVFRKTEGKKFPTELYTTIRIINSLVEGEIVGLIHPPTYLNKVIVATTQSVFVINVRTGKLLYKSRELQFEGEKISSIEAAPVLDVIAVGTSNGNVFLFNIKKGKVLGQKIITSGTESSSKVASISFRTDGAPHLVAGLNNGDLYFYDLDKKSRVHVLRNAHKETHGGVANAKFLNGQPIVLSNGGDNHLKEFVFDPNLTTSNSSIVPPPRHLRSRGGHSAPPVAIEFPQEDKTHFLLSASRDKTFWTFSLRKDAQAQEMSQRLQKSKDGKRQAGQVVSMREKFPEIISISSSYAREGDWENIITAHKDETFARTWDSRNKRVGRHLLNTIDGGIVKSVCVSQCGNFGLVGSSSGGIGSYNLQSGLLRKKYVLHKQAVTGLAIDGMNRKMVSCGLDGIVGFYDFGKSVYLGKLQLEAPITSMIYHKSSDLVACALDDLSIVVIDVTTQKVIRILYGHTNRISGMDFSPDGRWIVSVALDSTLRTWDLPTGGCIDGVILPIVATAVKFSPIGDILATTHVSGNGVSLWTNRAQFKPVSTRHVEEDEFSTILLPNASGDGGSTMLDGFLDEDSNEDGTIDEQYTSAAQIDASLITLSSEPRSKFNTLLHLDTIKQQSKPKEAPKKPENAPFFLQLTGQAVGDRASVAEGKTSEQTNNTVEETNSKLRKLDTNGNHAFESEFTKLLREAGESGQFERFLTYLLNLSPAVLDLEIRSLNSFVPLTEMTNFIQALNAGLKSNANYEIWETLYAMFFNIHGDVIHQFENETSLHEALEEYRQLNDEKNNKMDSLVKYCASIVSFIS
UniProt A0A1D8PNG5: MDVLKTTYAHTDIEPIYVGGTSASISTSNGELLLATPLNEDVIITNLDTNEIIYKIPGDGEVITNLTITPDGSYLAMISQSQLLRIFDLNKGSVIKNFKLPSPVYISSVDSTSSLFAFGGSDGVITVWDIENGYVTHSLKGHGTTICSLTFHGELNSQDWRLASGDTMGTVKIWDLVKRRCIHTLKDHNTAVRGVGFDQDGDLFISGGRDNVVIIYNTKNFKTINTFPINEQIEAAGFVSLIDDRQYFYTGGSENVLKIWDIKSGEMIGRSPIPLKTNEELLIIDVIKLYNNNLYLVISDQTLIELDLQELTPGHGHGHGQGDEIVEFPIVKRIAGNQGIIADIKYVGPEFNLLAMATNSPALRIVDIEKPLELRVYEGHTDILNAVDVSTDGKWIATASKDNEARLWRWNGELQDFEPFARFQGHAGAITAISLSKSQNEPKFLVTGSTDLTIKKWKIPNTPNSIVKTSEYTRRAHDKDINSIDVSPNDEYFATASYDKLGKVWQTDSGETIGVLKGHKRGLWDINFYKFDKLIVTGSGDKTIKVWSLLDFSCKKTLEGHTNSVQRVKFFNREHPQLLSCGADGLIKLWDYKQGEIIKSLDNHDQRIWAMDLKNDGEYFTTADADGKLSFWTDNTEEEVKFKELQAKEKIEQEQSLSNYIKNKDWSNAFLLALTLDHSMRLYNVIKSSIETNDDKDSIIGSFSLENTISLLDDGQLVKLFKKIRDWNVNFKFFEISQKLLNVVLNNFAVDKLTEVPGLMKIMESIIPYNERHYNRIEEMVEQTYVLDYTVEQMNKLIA

These are yes or no findings as the source states them, for the method shown. In cells and extracts the contact can be indirect. A yes stands for co-enrichment or nearness to the bait. Other partners may have been found.

This test concerns the target T1, Nop1-TAP (C. albicans) (UniProt Q5A0V9).
T1 sequence: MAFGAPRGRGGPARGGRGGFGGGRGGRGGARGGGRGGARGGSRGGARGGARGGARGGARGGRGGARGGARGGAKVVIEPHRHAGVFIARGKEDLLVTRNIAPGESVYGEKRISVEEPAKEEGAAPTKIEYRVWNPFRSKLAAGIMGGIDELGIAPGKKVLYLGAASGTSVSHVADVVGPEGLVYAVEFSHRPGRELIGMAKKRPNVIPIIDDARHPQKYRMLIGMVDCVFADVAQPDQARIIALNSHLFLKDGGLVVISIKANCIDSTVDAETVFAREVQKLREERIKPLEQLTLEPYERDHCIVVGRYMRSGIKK
In words: affinity purification with mass spectrometry; Nop1-TAP as bait, standard tandem affinity purification from C. albicans; TCA precipitate digested with trypsin in solution, or in-gel digestion of SYPRO Ruby stained SDS-PAGE bands; nanoLC LTQ-Orbitrap, Mascot search.

Sik1 (from UniProt A0A1D8PU46 1-516): the binding result is “binds”.

Utp4 (from UniProt A0A1D8PJD3 1-743): the binding result was “binds”.

For the molecule Utp8 (from UniProt A0A1D8PIX3 1-696), the binding result was “binds”. Take Utp18 (from UniProt A0A1D8PRJ5 1-552): the binding result is reported as “binds”.

On to Utp5 (from UniProt A0A1D8PU59), for which the binding entry was “binds”. To Utp21 (from UniProt A0A1D8PGP2 1-942) belongs “binds”. For the molecule Nop5 (C. albicans), the binding entry is recorded as “binds”. Turning to Utp13 (from UniProt A0A1D8PNG5 1-799), the binding entry is “binds”.

B1: Rrp9 (protein, UniProt Q5A213 1-549)
chain: MAGDPFLSDPSKKRKRSNKLTSKTKRSKSSTPTPTPTPTPNTNHQDDDISSGSDSENGHANGTNENDHGDNESELSSDEEFADETVNDKRRRLAKQYLENLKQNEHELYDEFDAKDLDDDILARRLQKDIAETKGYVYKFVGDKIKDQLDEEYPLELITTRIGCKNLTSMTINYPFLYTVSKDMEIIKWDINETHKKPKRIKHTKGGNKYFEINTINPQLNHHWQQINCIAASPDGKYIVTGGSDSRLIIWSSENLTCLKVLPTRSSVNSIVFRRNSDQLFAACADLRIRTYSINQFTQLEILYGHQDNISDISALAKETCVSVGSRDKTAMFWKIAEESRLTFRGGDSLEKTNKKKKRHYHQEEEEAETENDESTFYNEGSIDVVSMIDESHFVTGSDNGNVALWSLAKKKPLTTKRLSHGLQPQFTPIQASSESNEELALQQIPKPQPYWITAIHGVPYSDIFITGSFNGTIKIWKLEEPSLRSFKLLGEIKQNNLNGCIVKIDSVEIPNTKKLKIYVLLSKEHKFGRWLGKLPGARNALVNFTVNL
Regarding B1, the binding entry is reported as “binds”.

B2: Bud21 (protein, UniProt Q5A7N6 1-219)
chain: MVLTRSQTHYKQPIKKKFTDDDFSDEEKVSPSLPVQPEDDYSSEEEEEDDDDDDDSDDAPEEESTSKARSDILSEQKRLQQVEAELKKQEREKRKALDLRNTQQQQMKKSKQKSNPSTAPIELPEFLPDDIASIINQPVEESKPRHIRLDEIEASPKLDKKSLLEEKLRLLKAKKKVAIKKGPVHVKIQSFNSKVVPRSESKIVKNRDKWLHRKSVNRK
On to B2, for which the binding entry was “binds”.

B3: Dip2 (protein, UniProt Q5A756 1-981)
chain: MVKSYNRYDQEKCFGVITSQANIVWLPPSETQSSTSMGRALTSGLEEILIWDIKTGEIMNRMSDGLTPGSSNASTTVPPSPVSYLTYHQETNIIAAGYTDGSIKIWDISSNSVIINFEGHNSSITQLKFDKNGTRLVSGSSDSSIIMWDLIGEVGMFKLKGHKGPITGLELLSEQQNTQQDGDNVDDVDDMDDYLVSVSKDGLIKLWELKSQQCIETHLAHSNECWAMGINPTKDMLITSGNKDQVKVWSLDLSLEDGLKIGERGSFEKTSKSRSNEIAFKSLKSSSSSASLIQLFSIQNADRTMEIFRIRSEDEIKRGITKRTKRLKDKGLDEQEILESLQSSEISMLITPFTTMRTMAKIKSACWTNNIKKLDILMSLTNNSIEYHTIPVPETPKKAQSADLYSVKQHTIDLLGHRFDIRAMDISPQDNKLLATASNGELKIWNTRSYNVIRTFVLEGGYALCCKFLPGGTLIVVGFKNGDLELYDLATSSLVDRVEKAHSAITVGGAAPSNDDSAAIWSLDITPDGKTLVTGGNDKCVKFWNFKVEQDIIPGTNTTVSHLKFVHTQTLELNEDVLCVRISPDAKYLAISLLNNNVQVVFLDTLKLFLTLYGHRLPVLSIDISHDSKLIITSSADKNIKIWGLDFGDCHKSIFAHQDSIMNVRFIGDTHNFFSSGKDGLIKYWDGDKFECIQRLPAHQSEVWCMAISDDGLFMCSTSHDHSIRLWSATDDQVFLEEEKEKELDEIYENKLLDQIDGVDGEDHTNMKDDNDEEIDEATKVSKQTMETLKAGEKLMEALDIGVEDIEANKEYLSLVKQGKQAIKPTPNSILLAFNMTASQYVLNVLSKIRPAQLDDALLVLPFSYSLKLLQFIEIWTNKENITQNVVSISLICKVLFFVISSNSKELISQKDPHLKNQLIKVKEQLRQELSKTSNQLGVNTQGLKFVKKQWKLQHASEFIDEEEQRQYEEKRAIKRTYTTI
Consider B3, for which the binding result was “binds”.

B4: Utp15 (protein, UniProt Q59Y40 1-423)
chain: MSSTKQDLPQARAPTLPSKTTPEQRYWRSYITPQLIKENHPITSIEFNPTTPNDFAIASATKIQVFSSKTRQVIKTFSRFKDVVYSGNYRYDGKLLVASDASGLVSIYDSYQPRNLLVSLTPSSHPTHVAKFHPTIGNQLITGSDDRMLRVYDISQTSNGPIIQFDNIDHEDYIRSVNFIPGDSNLIVTGCYDGNVRILDVRDPHRVVAKFDQENPVEDILAVSSNTLVSAGGPYVKIWDLNRMSQIHQLNNFNKSTTCLSNTHTNGLMVGSLDSTIKVFDYTSTNWQVQFGWKFGSGVLSCGVSPINQKHFVAGLTSGLISIRTKKTEPKVKQGIKNDVSGGYARMMKGRDYTGEEEDHIIESSKIITNKTNKSVNELMSSYKKYLGASGSIDDIKPNDLKQEISQCLKAKEICGMLELLGV
B4: the binding entry is “binds”.

B5: Utp9 (protein, UniProt Q5ADY1 1-445)
chain: MKYALNGNKVATLIDRNGKDEIRVYNVDERGDSEVVASIILEDIIDFVWASPTTRKKRTPNGGSKESENQNLLVVLLKESVFVVLSEGSEINRFKIDDQIDKLVKYDENIWAATENSILKVSLDGDVKDKIKVPAFNAISISNKIAFGSTSLQIGKFAKGKFVCEDEIKVVGEIKSILQSKYPVVLTEDNNAYLIKKKVQKLSDAHHIQLLHYREKDYIVAISDNLNFYNDGKLENSISSETALEGVLSVEDSLVVFWSGKNELLFKKIDWSDDEIVIPRGELLMNGTKAHIKVAKPKVYKTDATSLMKKLSGISDHAAIVGLCQSVGDSTVIKEVSKEIGLELFPVISDAVSKDTTNTNLALWFKWIYLIHGKHIAKQDIAPVKEAKTQLESGVKLMSHLIAIQGKLQLLKLQNEMREKNVVRDVTTTIDDDSMVYANGEADII
Turning to B5, the binding entry is “binds”.

B6: Pwp2 (protein, UniProt Q5A852 1-922)
chain: MKSDFKFSNLLGTVYRKGNLVFNQDGTKLLSPVGNRVSCFDLIKSQSFTFDYQHRKNVQCIALNNQNTLMISIDEDGRAILVNFVSRVVLHHFNFKSKVNDIKFSPCGKYFAIAIDRFIQVWKTPDLTEDRQFAPFVRHRIYSGHFDEVLNISWSLDSRFFISTSKDMTAKIFSLNSDEKDVAMTFSGHRDYVINAFFSHDQEIIYTVSKDGALFKWEYTERPKPENEDSDSEDDATDKPMSWRITAKNFFYADGKLKCACFHPQSKLLVVGFTNGEFRLYEIEDFNLIQSLSMGQNAVNTVNINKTGEWLAFGSAKLGQLLVYEWQSESYILKQQGHFDSMNTLCYSPDGSRLVTGSDDGKIKIWDVRSGFCLMTFTEHTSAVTQVQFAKRGQVLFSSSLDGTIRAWDLIRFRNFKTFTATSRVQFNCLAVDPSGEVIVGGSQDTFEIYVWSVQTGQLLDSLTGHEGPISCLTFGKENSILASASWDKTIRIWNIFSRNQTVEPIEIQSDALCLTMRPDCKELAVSTLDGHVTIFDIEDAKQLHLIDGRKDIVNGRYLEDKFIAKNSNRGKYFSTIAYSFDGLTLLAAGNNNSICMYDIENEVLLKRFIVSENMSLDGTLQFLNSSKITDAGTNSDLIDRAGELSDLEDRVDNSLPGSHRGGDPSERRTRPEVRVTAVEFSPTTAAFAAASTEGLLIFSINQELIFDPFDLDVDVTPEATLESLKEKEYLVALVMAFRLNENYLIHRVIESIPLQDIKLVCQDLPVIYVNRVLNFIGELLTKKESPHIEYYLIMVKNLLIQHGRYISSNKFEFQSSMKLLSRFLNKTAKDVINVGKRNDHLLTYLTVSKDLKTASGHSEGEENIEMNEDSEAEDIDIDEDDDDEEGWLGPNGNSVKAANGIVFSGPADSSDEEDEDELIEV
For B6, the binding entry is reported as “binds”.

B7: Nan1 (protein, UniProt Q5AFB9 1-839)
chain: MPSAISEWSLSMATGGKPLYLPCSQTTASVYSQDGRYVIIALTHQLRVYFISTRQCIKTIDLDLHDLADLKIDVTNGNQVLLFKTSGEILTVNWKDKVSQPIISTIDINKTQSGTSLPLLSVISVKHLFFIIVTGRKEKKKGTPHTRYINYFDRNSESLVPIIEVANSINFATSLDNTKIAFITSGNEIDLFDLSGIFNVDSIENLSDNDIVKETIPFVYRSPVTSIAVSNDSMIAIGTSAGPIQIVYGGLTTPKPQRVLKWHLDQVKGLMFTADNNYLLSGGMEKVLVFWQLETEKKQFLPRLNGVIDKISIDNYKNDYISLQLNVDPLDNNYEILVLSAVDLVSRLSVNTVRPKFAYNIATTLSKTKKKFIKSSSDFDKFKIRYDYTSQFEIHPKTKSMYFPNGALIQSFDLFKNEQNFIQHGAPVLGVGKVRSETKLLDPLVTLLKFTHDGEWMCTFDEFTNTEVDSLLLKNEKQYALKFWKYVGHKENATSGINNNNKTGHWELTTKIIDPHGMNPILAMIPAPTSYFNGLAFLTADDKGGLRIWRPSVPKEQYKTTSARSQQTAWTLRKSRAPSALSSDAVALSWSDDNSLIFLAHECSILTIDSKSFEEIPDFKIPSLSGSRVRSLNMVNNNLIVLSKTRISSFDLITGELTSLVAKVNTTIGAKNLIAIDPIKRLICLALNYYSEENNTLSIKSKILIFKPNQLKPICVQLHEQGVSSIRYFNSSFVFVDLDCRVGTIYSNEEITETIELGLTQEINNMLIAAQATADVINDRNVKTTVGHQNGNKEGEMDIDNSMAYAAKVVDLHTFQPIFQNIEGVQVESLFERIVNVLK
On to B7, for which the binding entry was “binds”.
